Measured values from patent US20060052451A1, “Method” (priority 2002, published 2006).

Chains of the proteins cited; added tags and fusions are not shown.
UniProt P37230, whole entry: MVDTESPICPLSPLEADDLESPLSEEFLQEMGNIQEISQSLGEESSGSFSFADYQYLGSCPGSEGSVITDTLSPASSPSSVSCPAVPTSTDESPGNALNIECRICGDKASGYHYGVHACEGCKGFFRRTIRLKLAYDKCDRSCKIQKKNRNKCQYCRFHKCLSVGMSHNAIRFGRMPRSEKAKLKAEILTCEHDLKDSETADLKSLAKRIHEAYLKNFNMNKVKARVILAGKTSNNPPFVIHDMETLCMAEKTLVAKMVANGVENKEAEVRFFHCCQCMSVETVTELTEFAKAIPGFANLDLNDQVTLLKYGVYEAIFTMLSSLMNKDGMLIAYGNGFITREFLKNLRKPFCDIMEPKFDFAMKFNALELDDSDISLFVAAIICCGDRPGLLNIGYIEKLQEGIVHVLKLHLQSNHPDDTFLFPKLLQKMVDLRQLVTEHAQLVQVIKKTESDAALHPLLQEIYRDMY

Target: PPAR alpha (Rattus norvegicus, UniProt P37230)
Experiment: PPAR alpha transactivation assay in COS-1 cells
Assay type: cell-based
Details: at 1 mM, versus vehicle, mean±SD n=3

O=C(O)C(F)(F)C(F)(F)F [PFPA, Perfluropropionic acid]
Fold activation of PPAR alpha: approximately 2 fold and 1.36 ± 0.51 fold

Some entries of the source have several records that differ or are many. The list is limited to them. An entry can have further records. Values that stand side by side do not match, cause unknown; they may come from other doses, times, organisms or constructs than stated.
